Experimental findings from the supplement of paper PMC4604168 (melanoma cell lines) are described below.

This is one part of the list. Single values are uncertain, as repeats are few or missing.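 The apoptosis fraction was the count of cleaved-PARP antibody-stained nuclei relative to all DNA-stained nuclei, imaged in 1,536-well plates. Screening doses were set so most cells survived, and baseline and induced cleaved-PARP levels vary greatly across cell lines.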

The test system of the assay is RVH-421. The assay is described as follows: cleaved PARP positive nuclei fraction relative to DMSO control; melanoma cells; higher = more apoptosis. The settings on record: library dose: low library concentration; 72 h.
In the case of `CC(C)C[C@H](NC(=O)[C@H](Cc1ccccc1)NC(=O)c1cnccn1)B(O)O` [Bortezomib] + COc1cc2ncnc(Nc3ccc(Oc4ccccc4)cc3)c2cc1OC [SrcI1] (first compound 0.001 µM, partner dose 2 µM), the “cleaved PARP positive nuclei fraction” value is 404%. The value for `CC(C)C[C@H](NC(=O)[C@H](Cc1ccccc1)NC(=O)c1cnccn1)B(O)O` [Bortezomib] + C[C@@H]1CCN(C(=O)CC#N)C[C@@H]1N(C)c1ncnc2[nH]ccc12 [CP690550] (first compound 0.001 µM, partner dose 1 µM) was 91.3%. Take `CNC(=O)c1cc(Oc2ccc(NC(=O)Nc3ccc(Cl)c(C(F)(F)F)c3)cc2)ccn1` [sorafenib] + c1cc(-c2cnn3cc(-c4ccc(OCCN5CCCCC5)cc4)cnc23)ccn1 [Dorsomorphin] (first compound 0.4 µM, partner dose 0.4 µM): the “cleaved PARP positive nuclei fraction” value stood at 179%. The value for `O=C(O)c1ccc2c(c1)nc(Nc1cccc(Cl)c1)c1ccncc12` + O=C(Nc1cccc(Cl)c1)Nc1ncc(CCNc2ncnc3ccsc23)s1 [SNS314] (first compound 0.4 µM, partner dose 0.0008 µM) was 205%; that for `CCCS(=O)(=O)Nc1ccc(F)c(C(=O)c2c[nH]c3ncc(Cl)cc23)c1F` + CCc1ccc(CCOc2ccc(CC3SC(=O)NC3=O)cc2)nc1 [pioglitazone] (first compound 0.08 µM, partner dose 2 µM) was 126%; that for `O=C(O)c1ccc2c(c1)nc(Nc1cccc(Cl)c1)c1ccncc12` + CC(C)(C)c1cnc(CSc2cnc(NC(=O)C3CCNCC3)s2)o1 [SNS-032] (first compound 0.4 µM, partner dose 0.01 µM) was 168%. Take `CN1CCN(c2ccc3nc(-c4c(N)c5c(F)cccc5[nH]c4=O)[nH]c3c2)CC1` [Dovitinib] + NC(=O)Nc1cc(-c2cccc(F)c2)sc1C(=O)N[C@H]1CCCNC1 [AZD7762] (first compound 0.1 µM, partner dose 0.02 µM): the “cleaved PARP positive nuclei fraction” value came to 58.8%. Under `O=C(O)[C@@H]1[O][Sb](=[O])([O][Sb]2(=[O])[O][C@H]([C@H](O)CO)[C@H](O)[C@H](C(=O)O)[O]2)[O][C@H]([C@H](O)CO)[C@@H]1O` (some centres undefined) [stibogluconate] + OCCn1cc(-c2cnc3nnn(Cc4ccc5ncccc5c4)c3n2)cn1 [PF04217903] (first compound 2 µM, partner dose 1 µM) stands 204%; under `CS(=O)(=O)CCNCc1ccc(-c2ccc3ncnc(Nc4ccc(OCc5cccc(F)c5)c(Cl)c4)c3c2)o1` [lapatinib] + COc1ccc(COc2ccc(Cc3cnc(N)nc3N)cc2OC)cc1 [GW2580] (first compound 0.8 µM, partner dose 1 µM), 197%.
